# Data as given in PubChem BioAssay AID1259254 (NCATS, 2017).
# Screen: 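Gene knock-downs that lead to re-replication, shown by excess G2 DNA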 (primary screen)
# Cell system: human HCT116 colorectal cancer cells
# Knock-down reagent: single siRNA against human genes
# Duration: 3 days
# Read-out: 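Nuclei stained with Hoechst and imaged; cell-cycle phase assigned by DNA content; G2 share scaled per plate, non-targeting siRNA 0%, GMNN siRNA 100%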
# Reading the numbers: G2 robust z-score and G2 cells, % of GMNN control: higher = more G2 cells, more excess DNA replication
# Active means: 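Active siRNAs have a G2 robust z of 5 or more median absolute deviations over the median, which in these data means about 38% or higher of GMNN control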
# This is one part, drawn at random, of about 59,000 reagents tested. Over the whole deposit, about 1,550 (2.6%) got an active call. 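G2 share is only a proxy for re-replication; each gene was hit by three separate siRNAs, and active genes were retested.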 The numbers tell different reagents against one gene apart. Further read-outs or replicates are left out here. The record does not give: the amount of reagent.
target,siRNA no.,G2 robust z-score,"G2 cells, % of GMNN control",Call
GPR107 (G protein-coupled receptor 107),1,-1.25,-5.85,inactive
GPR107 (G protein-coupled receptor 107),2,-0.907,-3.41,inactive
GPR107 (G protein-coupled receptor 107),3,-0.247,1.23,inactive
DOCK10 (dedicator of cytokinesis 10),1,-0.851,-3.02,inactive
DOCK10 (dedicator of cytokinesis 10),2,3.19,25.4,inactive
DOCK10 (dedicator of cytokinesis 10),3,1.52,13.7,inactive
CUL2 (cullin 2),1,1.16,11.2,inactive
CUL2 (cullin 2),2,-0.537,-0.809,inactive
CUL2 (cullin 2),3,0.159,4.09,inactive
VPS26C (VPS26 endosomal protein sorting factor C),1,-1.17,-5.23,inactive
VPS26C (VPS26 endosomal protein sorting factor C),2,3.23,25.7,inactive
VPS26C (VPS26 endosomal protein sorting factor C),3,-0.254,1.18,inactive
RBMY2DP,1,3.88,30.3,inactive
RBMY2DP,2,1.41,12.9,inactive
RBMY2DP,3,-0.448,-0.187,inactive
CCDC33 (coiled-coil domain containing 33),1,-0.171,1.76,inactive
CCDC33 (coiled-coil domain containing 33),2,4.32,33.4,inactive
CCDC33 (coiled-coil domain containing 33),3,0.61,7.26,inactive
SDK2 (sidekick cell adhesion molecule 2),1,1.92,16.5,inactive
SDK2 (sidekick cell adhesion molecule 2),2,1.48,13.4,inactive
SDK2 (sidekick cell adhesion molecule 2),3,-1.1,-4.74,inactive
CBX2 (chromobox 2),1,-0.456,-0.242,inactive
CBX2 (chromobox 2),2,-0.735,-2.2,inactive
CBX2 (chromobox 2),3,0.545,6.8,inactive
TXNDC11 (thioredoxin domain containing 11),1,-1.22,-5.59,inactive
TXNDC11 (thioredoxin domain containing 11),2,1.75,15.3,inactive
TXNDC11 (thioredoxin domain containing 11),3,-1.09,-4.7,inactive
BTLA (B and T lymphocyte associated),1,-0.604,-1.28,inactive
BTLA (B and T lymphocyte associated),2,4.04,31.4,inactive
BTLA (B and T lymphocyte associated),3,-0.42,0.0158,inactive
MRPL3 (mitochondrial ribosomal protein L3),1,-0.71,-2.03,inactive
MRPL3 (mitochondrial ribosomal protein L3),2,-1.16,-5.16,inactive
MRPL3 (mitochondrial ribosomal protein L3),3,-0.507,-0.597,inactive
PSPH (phosphoserine phosphatase),1,0.178,4.22,inactive
PSPH (phosphoserine phosphatase),2,1.82,15.8,inactive
PSPH (phosphoserine phosphatase),3,0.0748,3.49,inactive
MRPS11 (mitochondrial ribosomal protein S11),1,-0.58,-1.12,inactive
MRPS11 (mitochondrial ribosomal protein S11),2,-0.216,1.45,inactive
MRPS11 (mitochondrial ribosomal protein S11),3,-0.827,-2.85,inactive
WNT10B (Wnt family member 10B),1,1.86,16.1,inactive
WNT10B (Wnt family member 10B),2,-0.156,1.87,inactive
WNT10B (Wnt family member 10B),3,-0.0599,2.55,inactive
CDRT15L2 (CMT1A duplicated region transcript 15 like 2),1,3.11,24.9,inactive
CDRT15L2 (CMT1A duplicated region transcript 15 like 2),2,-0.373,0.346,inactive
CDRT15L2 (CMT1A duplicated region transcript 15 like 2),3,-0.58,-1.11,inactive
PROM1 (prominin 1),1,-0.147,1.93,inactive
PROM1 (prominin 1),2,0.108,3.73,inactive
PROM1 (prominin 1),3,-0.318,0.731,inactive
SYAP1 (synapse associated protein 1),1,0.197,4.36,inactive
SYAP1 (synapse associated protein 1),2,2.53,20.8,inactive
SYAP1 (synapse associated protein 1),3,-0.544,-0.859,inactive
NLRP13 (NLR family pyrin domain containing 13),1,4.12,32,inactive
NLRP13 (NLR family pyrin domain containing 13),2,1.32,12.3,inactive
NLRP13 (NLR family pyrin domain containing 13),3,-0.295,0.895,inactive
TTLL5 (tubulin tyrosine ligase like 5),1,-0.134,2.02,inactive
TTLL5 (tubulin tyrosine ligase like 5),2,-0.321,0.707,inactive
TTLL5 (tubulin tyrosine ligase like 5),3,-1.31,-6.28,inactive
ANO3 (anoctamin 3),1,0.0416,3.26,inactive
ANO3 (anoctamin 3),2,0.96,9.72,inactive
ANO3 (anoctamin 3),3,-0.954,-3.74,inactive
TANGO2 (transport and golgi organization 2 homolog),1,-0.125,2.09,inactive
TANGO2 (transport and golgi organization 2 homolog),2,0.3,5.08,inactive
TANGO2 (transport and golgi organization 2 homolog),3,0.151,4.03,inactive
CLMB (calcimembrin),1,3.3,26.2,inactive
CLMB (calcimembrin),2,1.77,15.5,inactive
CLMB (calcimembrin),3,1.72,15.1,inactive
SNX6 (sorting nexin 6),1,3.38,26.8,inactive
SNX6 (sorting nexin 6),2,0.655,7.58,inactive
SNX6 (sorting nexin 6),3,-0.61,-1.33,inactive
